Values quoted from earlier work in patent US8758816B2, “Compositions comprising azelastine and methods of use thereof” (priority 2004, dated 2014).
Counter-ions that a name gives are not always drawn.

Conditions: U.S. Pat. No. 5,164,194; cited from earlier work

Question: Which “dilution at which the bitter taste was still found unpleasant” value does the source give for `CN1CCCC(n2nc(Cc3ccc(Cl)cc3)c3ccccc3c2=O)CC1` (racemic) [Azelastine, (±)-1-(2H)-phthalazinone, 4-[(4-chlorophenyl)methyl]-2-(hexahydro-1-methyl-1H-azepin-4-yl)-, mono-hydrochloride] here?
Answer: 1×10^6
